# Results taken from the supplement of paper PMC10689618.
# “And” between values parts separate entries of the source, which are not always exact repeats. Equal entries are not always repeated. Some of the results follow. Single values are uncertain, as repeats are few or missing.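 Labelled rat cortical synaptosomes were engulfed by primary human fetal astrocytes. Engulfment equaled a red/green ratio, corrected for calcein live-cell signal and normalized to the plate median. Compounds were toxic when calcein dropped over 30%, and reduced phagocytosis when below 70% of the median above 5 µM.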
# Tested on: Human fetal astrocytes
# Assay: loss of total cells relative to no-compound high-control median (toxicity); higher = more toxic (fewer cells)
# Conditions: 22.22 µM; 24 h
row,Compound,loss of total cells
1,C[C@@H]1C[C@H]2[C@@H]3C[C@H](F)C4=CC(=O)C=C[C@]4(C)[C@@]3(F)[C@@H](O)C[C@]2(C)[C@@]1(O)C(=O)CO,-8.5%
2,Nc1[nH]cnc2ncnc1-2,-26.4%
3,COc1ccc2c(c1)OC[C@@H](Cc1ccc(OC)c(OC)c1)[C@H]2O,11.4%
4,C[C@H]1[C@H](NC(=O)/C(=N\OC(C)(C)C(=O)O)c2csc(N)n2)C(=O)N1S(=O)(=O)O,-0.4% and 10.7%
5,O=C1N=C(O)NC1(c1ccccc1)c1ccccc1,-2.8%
6,CC[C@H](C)C(=O)O[C@H]1C[C@H](O)C=C2C=C[C@H](C)[C@H](CC[C@@H](O)C[C@@H](O)CC(=O)O)[C@H]21,-1.1%
7,CO/N=C(\C(=O)N[C@@H]1C(=O)N2C(C(=O)O)=C(COC(C)=O)CS[C@H]12)c1csc(N)n1,4.5%
8,CC1(C)[C@@H](O)CC[C@]2(C)[C@H]3C(=O)C=C4[C@@H]5C[C@@](C)(C(=O)O)CC[C@]5(C)CC[C@@]4(C)[C@]3(C)CC[C@@H]12,18.2%
9,Nc1c2ccccc2nc2ccccc12,0.9%
10,O=C(CCBr)N1CCN(C(=O)CCBr)CC1,0.9%
11,CCC(CCC(C)C1CCC2C3CCC4CC(O)CCC4(C)C3CCC12C)C(C)C (stereo unspecified),21.5%
12,OCC(S)CS (stereo unspecified),12.2%
13,O=C(O)CCCC[C@@H]1SC[C@@H]2NC(=O)N[C@@H]21,7.8%
14,CC(=O)c1cc2ccccc2oc1=O,14.4%
15,CCCCCC(=O)O[C@]1(C(C)=O)CC[C@H]2[C@@H]3CCC4=CC(=O)CC[C@]4(C)[C@H]3CC[C@@]21C,9.4%
16,CNCc1ccccc1,-3.7%
